# Structures can show the parent of a compound that is named as a salt. The list shows a part of the results. Single values are uncertain, as repeats are few or missing.
# Test system: A2780
# Experiment: cell growth inhibition ratio vs untreated control (CCK8); higher = stronger inhibition of cell viability
# Settings: 10 µM; 48 h
# Method: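 Natural product library (Topscience) screened at 10 µM final concentration for 48 h on ovarian cancer A2780 cells and patient-derived ovarian cancer cells (PDC) in 96-well plates; viability read by CCK8 and reported as inhibition ratio (%) relative to untreated control. Single-dose primary screen.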
row,Structure (SMILES),cell growth inhibition ratio
1,C[C@H]1C(=O)O[C@@H]2CCN3CC=C(COC(=O)[C@](C)(O)[C@]1(C)O)[C@H]23 [Monocrotaline],2.97%
2,COc1cc([C@@H]2c3cc4c(cc3[C@@H](O)[C@H]3COC(=O)[C@H]23)OCO4)cc(OC)c1O [4'-Demethylepipodophyllotoxin],78.2%
3,C[C@@H]1C[C@@H]([C@H](O)CC2CC(=O)NC(=O)C2)C(=O)[C@@H](C)C1 [Actidione],80%
4,C[C@]12CCC(=O)C=C1CC[C@@H]1[C@@H]2CC[C@@]2(C)[C@H]1CC[C@]2(C)O [17-Methyltestosterone],17.6%
5,COc1ccc2c(c[n+](C)c3c4cc5c(cc4ccc23)OCO5)c1OC [Chelerythrine chloride],92.5%
6,COc1cc(C(=O)O)cc(OC)c1OC [Gallic acid trimethyl ether],-2.51%
7,COc1cccc2c1cc([N+](=O)[O-])c1c(C(=O)O)cc3c(c12)OCO3 [Aristolochic Acid],9.17%
8,NCCc1c[nH]c2ccc(O)cc12 [Serotonin hydrochloride],7.36%
9,Cc1c2ccncc2c(C)c2c1[nH]c1ccccc12 [Ellipticine],73.8%
10,O=C(O)CC[N+](=O)[O-] [Bovinocidin],1.17%
11,"COc1ccc(C=Cc2cc(OC)cc(OC)c2)cc1 [3,5,4'-Trimethoxystilbene]",9.42%
12,CC1=CC(=O)c2c(O)cccc2C1=O [Plumbagin],6.26%
13,N#CCCN [3-Aminopropionitrile fumarate],-3.43%
14,COc1ccc2c(c1)[nH]c1c(C)nccc12 [Harmine hydrochloride],58.2%
15,CC[C@@]1([C@@H]2O[C@@H]([C@H]3O[C@@](O)(CO)[C@H](C)C[C@@H]3C)C[C@@H]2C)CC[C@H]([C@]2(C)CC[C@]3(C[C@H](O)[C@@H](C)[C@@H]([C@@H](C)[C@@H](OC)[C@H](C)C(=O)O)O3)O2)O1 [Monensin sodium salt],78.8%
16,CN1[C@@H]2CC[C@H]1C[C@@H](OC(=O)C(CO)c1ccccc1)C2 (stereo not given in full) [Atropine sulfate],5.35%
17,S=C=NCc1ccccc1 [Benzyl isothiocyanate],37%
18,Cc1cc2c(C(C)C)c(O)c(O)c(C=O)c2c(O)c1-c1c(C)cc2c(C(C)C)c(O)c(O)c(C=O)c2c1O [Gossypol],4.98%
19,COc1ccc(Cc2nccc3cc(OC)c(OC)cc23)cc1OC [Papaverine hydrochloride],38.9%
20,COC1=C[C@]23CCCN2CCc2cc4c(cc2[C@@H]3[C@@H]1O)OCO4 [Cephalotaxine],7.74%

row,Structure (SMILES),cell growth inhibition ratio
1,COc1ccc(C(=O)O)cc1OC [Veratric acid],4.91%
2,Cc1cc2c(C(C)C)c(O)c(O)c(C=O)c2c(O)c1-c1c(C)cc2c(C(C)C)c(O)c(O)c(C=O)c2c1O [Gossypol acetic acid],93.4%
3,C[C@]12CCC(=O)C=C1CC[C@@H]1[C@@H]2C(=O)C[C@]2(C)C(=O)CC[C@@H]12 [Adrenosterone],2.88%
4,C[C@]12CC[C@H](O)C[C@H]1CC[C@@H]1[C@@H]2CC[C@]2(C)[C@@H](c3ccc(=O)oc3)CC[C@]12O [Bufalin],85.6%
5,CCCCCCCCC(=O)NCc1ccc(O)c(OC)c1 [Nonivamide],-4%
6,NCCc1ccccc1 [Phenethylamine],12.3%
7,CNC1CC(N)C(O)C(OC2OC(CO)C(O)C3OC4(OC(C(N)CO)C(O)C(O)C4O)OC23)C1O (stereo not given) [Hygromycin B],24.6%
8,C[C@@H]1CC[C@@]2(OC1)O[C@H]1[C@@H](O)[C@H]3[C@@H]4CC[C@H]5C[C@@H](O[C@@H]6O[C@H](CO)[C@H](O[C@@H]7O[C@H](CO)[C@@H](O)[C@H](O[C@@H]8OC[C@@H](O)[C@H](O)[C@H]8O)[C@H]7O[C@@H]7O[C@H](CO)[C@H](O)[C@H](O[C@@H]8O[C@H](CO)[C@@H](O)[C@H](O)[C@H]8O)[C@H]7O)[C@H](O)[C@H]6O)[C@H](O)C[C@]5(C)[C@H]4CC[C@]3(C)[C@H]1[C@@H]2C [Digitonin],91.8%
9,CCC1=CC2CN3CCc4c([nH]c5ccccc45)C(C(=O)OC)(C2)C13 (stereo not given) [Catharanthine sulfate],27.3%
10,CN1[C@@H]2CC[C@H]1C[C@@H](OC(=O)[C@H](CO)c1ccccc1)C2 [L-Hyoscyamine],28.4%
11,C[C@@]1(C(=O)O)CC[C@]2(C)CC[C@]3(C)C4=CC(=O)c5c(cc(O)c(O)c5C=O)[C@]4(C)CC[C@@]3(C)[C@@H]2C1 [Demethylzeylasteral],13.1%
12,CC(C)(C)[C@]1(O)CC2OC(=O)CC23C(=O)OC2OC(=O)[C@H](O)C231 (stereo not given in full) [Bilobalide],19.9%
13,CC(=O)OCC1=C(C(=O)O)N2C(=O)[C@@H](N)[C@H]2SC1 [7-Aminocephalosporanic acid],-22%
14,CN(CC(=O)O)C(=N)NP(=O)(O)O [Creatine phosphate disodium salt],-3.74%
15,CNC(=O)Oc1ccc2c(c1)[C@]1(C)CCN(C)[C@@H]1N2C [Physostigmine Salicylate],31.5%
16,C=C(C)[C@H]1Cc2c(ccc3c2O[C@@H]2COc4cc(OC)c(OC)cc4[C@@H]2C3=O)O1 [Rotenone],82.8%
17,CC1=C2[C@H]3OC(=O)[C@@H](C)[C@@H]3CC[C@@]2(C)C=CC1=O [α-santonin],-1.92%
18,COc1cc([C@@H]2c3cc4c(cc3[C@H](O)[C@H]3COC(=O)[C@@H]23)OCO4)cc(OC)c1OC [Picropodophyllin (PPP)],89.1%
19,O=C(/C=C/c1ccccc1)OC[C@H]1O[C@@H](O[C@@H]2OC=C[C@H]3[C@H](O)[C@@H]4O[C@]4(CO)[C@@H]23)[C@H](O)[C@@H](O)[C@@H]1O [Picroside I],-3.56%
20,CCCC[N+]1(C)[C@@H]2C[C@@H](OC(=O)[C@H](CO)c3ccccc3)C[C@H]1[C@@H]1O[C@@H]12 (stereo not given in full) [Scopolamine butylbromide],5.88%

# Given as tab-separated lines: part of the list above.
row	Structure (SMILES)	cell growth inhibition ratio
12	CC(C)(C)[C@]1(O)CC2OC(=O)CC23C(=O)OC2OC(=O)[C@H](O)C231 (stereo not given in full) [Bilobalide]	19.9%
13	CC(=O)OCC1=C(C(=O)O)N2C(=O)[C@@H](N)[C@H]2SC1 [7-Aminocephalosporanic acid]	-22%

# Source: the supplement of paper PMC10373366
